In paper PMC12313019, “Fibrotic lung ECM upregulates SDC4/integrin-αvβ1 interaction and the interfering peptide SDC4_87-131 and its derivative peptides alleviate pulmonary fibrosis” (Regenerative Biomaterials, 2025):
Results are given in words; binding and its absence hold for the method and conditions named. In cells and extracts the contact can be indirect. Some results given as binding are weak or reduced against the parent protein; the word gives no strength.

Assays:
[1] = target: T1, syndecan-4 (SDC4) (mouse (endogenous in NIH3T3 and C57BL/6J lung)) (UniProt O35988); experiment: proximity ligation; Duolink PLA on NIH3T3 cells cultured on dECM-Nor or dECM-PF; antibodies against the extracellular domain of SDC4 (5G9), integrin-αv and integrin-β1; with Anti-SDC4_((93-121)) 500 ng/mL or SDC4_(87-131) 100 nM
T1 sequence: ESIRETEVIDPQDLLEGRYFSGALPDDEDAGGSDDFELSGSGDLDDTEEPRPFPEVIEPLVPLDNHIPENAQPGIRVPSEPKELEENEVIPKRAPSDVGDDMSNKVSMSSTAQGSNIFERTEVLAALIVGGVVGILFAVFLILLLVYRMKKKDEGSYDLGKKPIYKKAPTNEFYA

[2] = target: T1, syndecan-4 (SDC4) (mouse (endogenous in NIH3T3 and C57BL/6J lung)); experiment: proximity ligation; Duolink PLA on mouse lung tissue slices 21 days after BLM; antibodies against the extracellular domain of SDC4 (5G9) and integrin-αv; groups with SDC4 knockdown, SDC4_(87-131), C8 or Anti-SDC4_((93-121)) treatment

- binding [1]: binds
- binding [2]: binds
B1: integrin-αv (receptor, UniProt P43406 31-1044)
chain: FNLDVESPAEYAGPEGSYFGFAVDFFEPSTSSRMFLLVGAPKANTTQPGIVEGGQVLKCECSSSRRCQPIEFDSTGNRDYAKDDPLEFKSHQWFGASVRSKQDKILACAPLYHWRTEMKQEREPVGTCFLQDGTKTVEYAPCRSKNIDADGQGFCQGGFSIDFTKADRVLLGGPGSFYWQGQLISDQVAEIISKYDPNVYSIKYNNQLATRTAQAIFDDSYLGYSVAVGDFNGDGIEDFVSGVPRAARTLGMVYIYDGKNMSSLHNFTGEQMAAYFGFSVAATDINGDDYADVFIGAPLFMDRGSDGKLQEVGQVSVSLQRAVGDFQTTKLNGFEVFARFGSAIAPLGDLDQDGFNDIAIAAPYGGEDKKGLVYIFNGRSTGLNSVPSQILEGQWAAQSMPPSFGYSMKGATDVDRNGYPDLVVGAFGVDRAVLYRARPVVTVNAGLEVYPSILNQDNKICPLPGTALKVSCFNVRFCLKADGKGTLPRKLHFQVELLLDKLKQKGAIRRALFLHNRSPVHSKTMTVFRGGQMQCEELVAYLRDESEFRDKLTPITIFMEYRLDQRTAADATGLQPILNQFTPANVSRQAHILLDCGEDNVCKPKLEVSVNSDQKKIYIGDDNPLTLTVKAQNQGEGAYEAELIVSIPPQADFIGVVRNNEALARLSCAFKTENQTRQVVCDLGNPMKAGTQLLAGLRFSVHQQSEMDTSVKFDLKIQSSNSFDNVSPVVSYKVDLAVLAAVEIRGVSSPDHIFLPIPNWEYKENPETEEDVGPIVQHIYELRNNGPSSFSKAILNLQWPYKYNNNTLLYILHYDIDGPMNCTADTEINPLRIKTPEKNDTAAAGQGERNHLITKRDLTLREGDVHTLGCGIAKCLQITCQVGRLDRGKSAILYVKSLLWTETFMNKENQNHSYSLKSSASFNIIEFPYKNLPIEDLFNSTLVTTNITWGIQPAPMPVPVWVIILAVLAGLLLLAVLVFVMYRMGFFKRVRPPQEEQEREQLQPHENGEGNSET
